Data as given in US20170073410A1.
Results are given in words; binding and its absence hold for the method and conditions named. Binding seen in cells or lysates may run through a third protein. Some entries that bind do so weakly or less than the wild type.

Target: T1, IL12a (p35 subunit of Interleukin 12), mouse (mouse) (UniProt P43431)
T1 sequence (looked up): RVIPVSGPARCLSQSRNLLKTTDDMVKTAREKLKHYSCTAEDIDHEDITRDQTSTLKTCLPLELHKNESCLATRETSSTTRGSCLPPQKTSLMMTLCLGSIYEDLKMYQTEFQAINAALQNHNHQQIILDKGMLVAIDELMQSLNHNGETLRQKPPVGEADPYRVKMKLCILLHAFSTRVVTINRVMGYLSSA
Assay: co-immunoprecipitation: IP with anti-IL12a (p35) mAb, SDS-PAGE, blot with anti-EBI3 mAb

B1: Epstein-Barr virus-induced gene 3 (EBI3) product, mouse (ligand, UniProt O35228 19-228, looked up)
chain: YTETALVALSQPRVQCHASRYPVAVDCSWTPLQAPNSTRSTSFIATYRLGVATQQQSQPCLQRSPQASRCTIPDVHLFSTVPYMLNVTAVHPGGASSSLLAFVAERIIKPDPPEGVRLRTAGQRLQVLWHPPASWPFPDIFSLKYRLRYRRRGASHFRQVGPIEATTFTLRNSKPHAKYCIQVSAQDLTDYGKPSDWSLPGQVESAPHKP
- binding: binds
